Source: PubChem BioAssay AID1259405 (NCATS, 2018)

Purpose: 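Mouse-designed siRNAs used to find CHO productivity engineering targets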 (primary screen)
Cell system: Chinese hamster CHO-K1 ovary cells with stable secreted eGFP expression
Reagents: single siRNA against mouse genes, 0.8 pmol siRNA per well (2 µl of 400 nM stock)
Timing: 3 days
Measurement: 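Per-well intracellular GFP measured by laser scanning cytometry, plus viability from ATP luminescence, each relative to plate median of non-targeting control wells, in %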
Reading the numbers: GFP, % of control: higher = more GFP per well, higher productivity; viability (ATP), % of control: higher = more viable cells (more ATP)
Hit rule: 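a knock-down is called active if GFP reaches 120% or more of non-targeting control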
The deposit covers about 50,000 reagents; below is a part drawn at random. About 4,000 of all reagents (8%) were called active. 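Mouse siRNA library applied to hamster cells; one well for each siRNA.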 Entries without a mark were called inactive. The numbers tell different reagents against one gene apart. Reagent sequences are not shown.

Against Mat2a #1 the deposit lists GFP, % of control 73.2; viability (ATP), % of control 36.3.
With knock-down of Mat2a #2, the record shows GFP, % of control 71; viability (ATP), % of control 100.
After knock-down of Mat2a #3, the record shows GFP, % of control 119; viability (ATP), % of control 86.5.
Depletion of Fam3b #1 gave: GFP, % of control 149 (active); viability (ATP), % of control 146.
Fam3b #2 gave GFP, % of control 71.4; viability (ATP), % of control 92.7.
Tdpoz1 #1 showed GFP, % of control 48.2; viability (ATP), % of control 79.
Knock-down of Tdpoz1 #2 gave: GFP, % of control 60.1; viability (ATP), % of control 73.1.
Tdpoz1 #3 showed GFP, % of control 57.9; viability (ATP), % of control 62.2.
Against Pspn #1 the deposit lists GFP, % of control 54.6; viability (ATP), % of control 71.9.
Pspn #2 scored GFP, % of control 111; viability (ATP), % of control 95.1.
For Pspn #3, the values are GFP, % of control 85.4; viability (ATP), % of control 72.8.
For Tmprss11g #1, the entry reads GFP, % of control 85.6; viability (ATP), % of control 83.7.
Against Tmprss11g #2, the entry reads GFP, % of control 55.7; viability (ATP), % of control 98.9.
With knock-down of Tmprss11g #3, the screen gave GFP, % of control 63.8; viability (ATP), % of control 102.
Scaf11 #1 showed GFP, % of control 92.4; viability (ATP), % of control 84.
For Scaf11 #2, the values are GFP, % of control 75.4; viability (ATP), % of control 64.1.
Against Scaf11 #3, the entry reads GFP, % of control 29.7; viability (ATP), % of control 57.8.

3 entries from above, ordered by “GFP, % of control”, highest first.
Tmprss11g #1 | GFP, % of control: 85.6; viability (ATP), % of control: 83.7
Tmprss11g #3 | GFP, % of control: 63.8; viability (ATP), % of control: 102
Tmprss11g #2 | GFP, % of control: 55.7; viability (ATP), % of control: 98.9
